From patent publication US20150290227A1, “USE OF HAMAMELITANNIN FOR THE TREATMENT OF STAPHYLOCOCCAL INFECTIONS” (priority 2006, published 2015)
Some of these results come from one statement about several compounds together.

Test system: S. aureus cells
Test: S. aureus cell attachment in vitro in polystyrene plates
Assay type: cell-based
Experimental: Attached cells were stained and OD595nm was determined.
To test for the effect of hamamelitannin on bacterial attachment in vitro, S. aureus cells were incubated with 0-50 μg hamamelitannin or RIP in polystyrene plates for 3 hrs at 37° C. Adherent bacteria were stained with methylene blue and OD determined at 595 nm.

With O=C(OC[C@H]1OC(O)[C@@](O)(COC(=O)c2cc(O)c(O)c(O)c2)[C@@H]1O)c1cc(O)c(O)c(O)c1 (some centres unmarked) [hamamelitannin, 2′,5-di-O-galloyl hamamelose] the “dose inhibiting cell attachment in vitro” value was ≥ 0.4 picomoles per 1000 bacteria and the “amount most effective in reducing cell attachment” value (2×10^7 bacteria, 3 hrs at 37° C.) was “at least 12.5 μg”.
